Article PMC4848758
These are yes or no findings as the source states them, for the method shown. Some binding calls cover weakened binding; strength is not graded here.

Amino acid sequences for entries named in this document (tags omitted).
UniProt Q92609: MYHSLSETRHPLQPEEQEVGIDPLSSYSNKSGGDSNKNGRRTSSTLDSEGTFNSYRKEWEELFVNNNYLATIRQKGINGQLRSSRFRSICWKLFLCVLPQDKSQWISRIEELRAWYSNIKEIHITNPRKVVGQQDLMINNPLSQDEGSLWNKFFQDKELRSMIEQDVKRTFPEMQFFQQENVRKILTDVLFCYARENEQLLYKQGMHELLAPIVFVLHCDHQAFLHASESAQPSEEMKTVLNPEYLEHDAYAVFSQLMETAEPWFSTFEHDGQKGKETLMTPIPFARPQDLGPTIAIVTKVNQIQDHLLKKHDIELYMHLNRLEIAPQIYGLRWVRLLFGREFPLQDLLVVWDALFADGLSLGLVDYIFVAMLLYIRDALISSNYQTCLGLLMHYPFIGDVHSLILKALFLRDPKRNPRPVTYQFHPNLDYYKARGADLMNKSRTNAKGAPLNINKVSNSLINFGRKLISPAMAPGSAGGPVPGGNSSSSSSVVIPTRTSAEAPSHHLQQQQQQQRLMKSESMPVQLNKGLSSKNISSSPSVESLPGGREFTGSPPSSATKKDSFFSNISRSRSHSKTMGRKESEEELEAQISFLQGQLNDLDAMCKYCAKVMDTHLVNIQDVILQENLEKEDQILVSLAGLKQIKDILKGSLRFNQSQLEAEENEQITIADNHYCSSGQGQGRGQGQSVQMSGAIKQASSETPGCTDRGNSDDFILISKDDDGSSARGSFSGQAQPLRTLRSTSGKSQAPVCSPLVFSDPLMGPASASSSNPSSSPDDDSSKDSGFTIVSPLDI

T1: Atg8 (S. cerevisiae) (UniProt P38182)
T1 sequence: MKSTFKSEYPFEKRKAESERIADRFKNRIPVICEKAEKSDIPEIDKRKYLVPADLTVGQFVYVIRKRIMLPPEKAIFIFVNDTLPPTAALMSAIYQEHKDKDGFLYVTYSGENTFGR

B1: MLX (protein, UniProt Q9UH92 1-298)
chain: MTEPGASPEDPWVKASPVGAHAGEGRAGRARARRGAGRRGASLLSPKSPTLSVPRGCREDSSHPACAKVEYAYSDNSLDPGLFVESTRKGSVVSRANSIGSTSASSVPNTDDEDSDYHQEAYKESYKDRRRRAHTQAEQKRRDAIKRGYDDLQTIVPTCQQQDFSIGSQKLSKAIVLQKTIDYIQFLHKEKKKQEEEVSTLRKDVTALKIMKVNYEQIVKAHQDNPHEGEDQVSDQVKFNVFQGIMDSLFQSFNASISVASFQELSACVFSWIEEHCKPQTLREIVIGVLHQLKNQLY

Target: T1, Atg8 (S. cerevisiae)
Test: two-hybrid; Systematic YHII-1 map: 7,240 human proteins from pDEST-AD against 3,778 yeast proteins from pDEST-DB; single-pass Y2H screen, then pairwise tests four independent times, retained only if positive all four times; confirmed by Sanger end-sequencing

Row | Molecule | binding
1 | TBC1D5 (from UniProt Q92609 1-795) | binds
2 | B1 | binds
